PubChem BioAssay AID1159578 | Peter MacCallum Cancer Centre | 2015
This is one part, drawn at random, of about 18,000 reagents tested. Of all reagents, about 1,030 (5.7%) are marked active. 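Inactive calls also include pools with fewer than 3300 nuclei, whose migration was not assessed.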 Raw values are not corrected between plates.

- Test: 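Genome-wide hunt for genes controlling movement of lymphatic endothelial cells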 (primary screen)
- Cell system: human lymphatic endothelial cells
- Reagents: siRNA pool against human genes, 40 nM
- Time to read-out: 48 h after transfection
- Measurement: 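High-content imaging of dye-stained cells in a scratch assay measures filled wound area and nuclei per well; duplicate means given as ratio to mock and robust z-score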
- Direction: migration robust z-score: higher = faster migration into the scratch; migration relative to mock: higher = more scratch area covered than mock; nuclei per well: higher = more cells in the well
- Hit rule: 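Migration changed when robust z exceeds 2 or falls below -2 and mean nuclei number is at least 3300; otherwise not called changed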
- Meaning of the calls: active = migration changed; inactive = no migration change, or too few cells

gene | migration robust z-score | migration class with cell-count check | migration relative to mock | nuclei per well, duplicate mean | call
TMEM128 | 0.54 | migration z between -2 and 2; enough cells | 1.02 | 5728 | inactive
FAM153CP | -1 | migration z between -2 and 2; enough cells | 0.62 | 5977 | inactive
SLC22A11 | -0.46 | migration z between -2 and 2; enough cells | 0.72 | 4700 | inactive
ACKR2 | -0.34 | migration z between -2 and 2; enough cells | 0.74 | 5442 | inactive
TUBB4B | 1 | migration z between -2 and 2; enough cells | 1.15 | 3616 | inactive
SLC17A8 | -1.77 | migration z between -2 and 2; enough cells | 0.46 | 7356 | inactive
AMMECR1L | 0.17 | migration z between -2 and 2; enough cells | 0.93 | 5607 | inactive
UHMK1 | -2.44 | migration z below -2; enough cells | 0.34 | 5208 | active
ZNF513 | -2.43 | under 3300 nuclei; migration not judged | 0.25 | 2036 | inactive
TAF1L | -0.65 | migration z between -2 and 2; enough cells | 0.68 | 4716 | inactive
IL12B | -0.46 | migration z between -2 and 2; enough cells | 0.72 | 7101 | inactive
MRPS6 | -0.69 | migration z between -2 and 2; enough cells | 0.7 | 6618 | inactive
GPBP1L1 | -0.48 | migration z between -2 and 2; enough cells | 0.76 | 6155 | inactive
SLC25A25 | -0.1 | migration z between -2 and 2; enough cells | 0.78 | 5693 | inactive
SREK1 | -0.92 | migration z between -2 and 2; enough cells | 0.64 | 5799 | inactive
SREBF1 | -0.84 | migration z between -2 and 2; enough cells | 0.66 | 5672 | inactive
DENR | 0.6 | migration z between -2 and 2; enough cells | 1.04 | 6062 | inactive
UBL5 | -1.84 | under 3300 nuclei; migration not judged | 0.45 | 3198 | inactive
GRIPAP1 | -0.34 | migration z between -2 and 2; enough cells | 0.8 | 6358 | inactive
TPD52L3 | 0 | migration z between -2 and 2; enough cells | 0.8 | 4297 | inactive
CDK16 | -0.62 | under 3300 nuclei; migration not judged | 0.68 | 3119 | inactive
AASDH | -0.72 | migration z between -2 and 2; enough cells | 0.7 | 7505 | inactive
TMED8 | -0.06 | migration z between -2 and 2; enough cells | 0.86 | 4930 | inactive
LRP10 | -0.48 | migration z between -2 and 2; enough cells | 0.76 | 7084 | inactive
C20orf144 | -0.54 | under 3300 nuclei; migration not judged | 0.75 | 3203 | inactive
GSN | -0.55 | migration z between -2 and 2; enough cells | 0.74 | 3938 | inactive
DNAJC4 | -0.78 | migration z between -2 and 2; enough cells | 0.68 | 5787 | inactive
CIMAP1D | 0.33 | migration z between -2 and 2; enough cells | 0.96 | 5646 | inactive
KRT18P55 | -0.9 | migration z between -2 and 2; enough cells | 0.64 | 5738 | inactive
OSBPL6 | 1.56 | migration z between -2 and 2; enough cells | 1.29 | 5624 | inactive
SKOR1 | 0.42 | migration z between -2 and 2; enough cells | 1 | 6280 | inactive
KDM5B | 1.27 | migration z between -2 and 2; enough cells | 1.05 | 6670 | inactive
KRTAP10-10 | -1.14 | migration z between -2 and 2; enough cells | 0.59 | 5786 | inactive
SAMSN1 | 0.44 | migration z between -2 and 2; enough cells | 1 | 5590 | inactive
HIGD1A | 0.26 | migration z between -2 and 2; enough cells | 0.96 | 6806 | inactive
IL21R | 0.32 | migration z between -2 and 2; enough cells | 0.86 | 5684 | inactive
USH1G | -1.3 | migration z between -2 and 2; enough cells | 0.55 | 5192 | inactive
ANKRD27 | 1.37 | migration z between -2 and 2; enough cells | 1.24 | 6400 | inactive
SHISA4 | -0.5 | migration z between -2 and 2; enough cells | 0.76 | 6398 | inactive

Hits, among the entries above:
gene | migration robust z-score | migration class with cell-count check | migration relative to mock | nuclei per well, duplicate mean | call
UHMK1 | -2.44 | migration z below -2; enough cells | 0.34 | 5208 | active
